Measurements as given in patent publication US20240247029A1 (VALORISATION HSJ, LIMITED PARTNERSHIP, priority 2020, published 2024).

Experiment: general procedure: Fmoc solid-phase peptide synthesis; polystyrene Rink amide resin (75-100 mesh, 1% DVB, 0.5 mmol/g loading); HBTU
Conditions: whole synthesis

With “[(3R,4S)-4-(4′-(1,1-Dimethyl)aminomethyltriazolyl)Agl^3]-1” the isolated mass was 6 mg, the “crude LC-MS purity” value (LC-MS analysis with MeOH or MeCN gradients (0.1% FA), scale of the general procedure 50.0 μmol) was 73% and the “final LC-MS purity” value (LC-MS analysis with MeOH or MeCN gradients (0.1% FA), scale of the general procedure 50.0 μmol, run 1) was greater than 95%. For the same substance, the “final LC-MS purity” value (LC-MS analysis with MeOH or MeCN gradients (0.1% FA), scale of the general procedure 50.0 μmol, run 2) was greater than 98% and the isolated yield (scale of the general procedure 50.0 μmol) was 13%.
